Measurements reported in PubChem BioAssay AID493246 (Drosophila RNAi Screening Center, 2011).
Assay: 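Genome-wide search for dsRNAs that reduce cell number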 (primary screen). Cell system: Drosophila Kc and S2R+ cells. Knock-down reagent: long dsRNA against Drosophila genes. Measurement: 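Raw, unnormalised count of remaining cells in each well; per-plate z-scores of cell number underlie the calls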. Reading the numbers: Kc cell number and S2R+ cell number: higher = more cells remaining. Active means: 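Counted as a hit if cell number falls by a z-score of at least 3 within its plate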.
The deposit covers about 21,000 reagents; shown is an unselected part of those with a known target gene and a result. In the full data, 429 (2%) are marked active. 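Values are raw and not normalised between plates; calls rest on per-plate z-scores that were not deposited.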 The numbers tell different reagents against one gene apart. Not given: the amount of reagent, the time to read-out.

The first 4 entries, to show the layout:
| target | dsRNA no. | Kc cell number, rep 1 | Kc cell number, rep 2 | S2R+ cell number, rep 1 | S2R+ cell number, rep 2 | Call |
| --- | --- | --- | --- | --- | --- | --- |
| CG9344 | 1 | 1.65e6 | 1.74e6 | 1.27e6 | 4.62e5 | inactive |
| CG14857 | 1 | 1.36e6 | 1.37e6 | 1.10e6 | 1.20e6 | inactive |
| Cpr72Ec (Cuticular protein 72Ec) | 1 | 1.55e6 | 1.62e6 | 1.36e6 | 1.42e6 | inactive |
| retinin | 1 | 1.41e6 | 1.47e6 | 1.20e6 | 1.31e6 | inactive |

Main list, from the start:
| target | dsRNA no. | Kc cell number, rep 1 | Kc cell number, rep 2 | S2R+ cell number, rep 1 | S2R+ cell number, rep 2 | Call |
| --- | --- | --- | --- | --- | --- | --- |
| CG9344 | 1 | 1.65e6 | 1.74e6 | 1.27e6 | 4.62e5 | inactive |
| CG14857 | 1 | 1.36e6 | 1.37e6 | 1.10e6 | 1.20e6 | inactive |
| Cpr72Ec (Cuticular protein 72Ec) | 1 | 1.55e6 | 1.62e6 | 1.36e6 | 1.42e6 | inactive |
| retinin | 1 | 1.41e6 | 1.47e6 | 1.20e6 | 1.31e6 | inactive |
| Dhpr (Dihydropteridine reductase) | 1 | 1.59e6 | 1.57e6 | 1.14e6 | 1.15e6 | inactive |
| CG9953 | 1 | 1.77e6 | 1.72e6 | 1.15e6 | 1.14e6 | inactive |
| Nepl3 (Neprilysin-like 3) | 1 | 1.27e6 | 1.37e6 | 5.23e5 | 7.56e5 | inactive |
| Ptip (PAX transcription activation domain interacting protein) | 1 | 1.73e6 | 1.76e6 | 1.13e6 | 1.34e6 | inactive |
| Ptip (PAX transcription activation domain interacting protein) | 2 | 1.71e6 | 1.62e6 | 8.95e5 | 1.06e6 | inactive |
| Lsd-1 (Lipid storage droplet-1) | 1 | 1.42e6 | 1.52e6 | 1.19e6 | 1.29e6 | inactive |
| Fmo-1 (Flavin-containing monooxygenase 1) | 1 | 1.42e6 | 1.51e6 | 1.09e6 | 1.12e6 | inactive |
| CG12688 (retired record) | 1 | 1.35e6 | 1.35e6 | 9.55e5 | 1.07e6 | inactive |
| CG12688 (retired record) | 2 | 1.27e6 | 1.32e6 | 1.03e6 | 1.17e6 | inactive |
| Atac3 (Ada2a-containing complex component 3) | 1 | 1.41e6 | 1.32e6 | 9.72e5 | 1.22e6 | inactive |
| Hip1 (Huntingtin interacting protein 1) | 1 | 1.43e6 | 1.48e6 | 1.38e6 | 1.27e6 | inactive |
| CG6142 | 1 | 1.54e6 | 1.75e6 | 1.03e6 | 1.11e6 | inactive |
| zfh2 (Zn finger homeodomain 2) | 1 | 5.34e5 | – | 7.50e5 | – | inactive |
| unc-4 | 1 | 1.46e6 | 1.41e6 | 9.36e5 | 1.11e6 | inactive |
| eIF3c (eukaryotic translation initiation factor 3 subunit c) | 1 | 1.26e6 | 1.38e6 | 8.00e5 | 1.01e6 | inactive |
| CG11779 | 1 | 1.36e6 | 1.48e6 | 1.14e6 | 1.17e6 | inactive |
| CG31142 | 1 | 1.47e6 | 1.62e6 | 1.11e6 | 1.07e6 | inactive |
| Gr59f (Gustatory receptor 59f) | 1 | 1.57e6 | 1.63e6 | 1.33e6 | 1.43e6 | inactive |
| mRF1 (mitochondrial translation release factor 1) | 1 | 1.32e6 | 1.39e6 | 1.20e6 | 1.26e6 | inactive |
| puf (puffyeye) | 1 | 1.65e6 | 1.71e6 | 8.51e5 | 9.62e5 | inactive |
| CG15279 | 1 | 1.36e6 | 1.53e6 | 1.38e6 | 1.22e6 | inactive |
| unc-13-4A | 1 | 1.49e6 | 1.28e6 | 1.13e6 | 1.20e6 | inactive |
| unc-13-4A | 2 | 1.44e6 | 1.35e6 | 1.08e6 | 1.14e6 | inactive |
| unc-13-4A | 3 | 6.03e5 | 6.81e5 | 4.48e5 | 5.61e5 | active |
| unc-13-4A | 4 | 1.41e6 | 1.32e6 | 1.10e6 | 1.21e6 | inactive |
| Abcd3 (ATP binding cassette subfamily D member 3) | 1 | 1.57e6 | 1.67e6 | 1.02e6 | 1.14e6 | inactive |
| CG13857 | 1 | 1.23e6 | 1.27e6 | 1.13e6 | 1.29e6 | inactive |
| Trm7-32 (tRNA methyltransferase 7-32) | 1 | 1.54e6 | 1.62e6 | 1.25e6 | 1.26e6 | inactive |
| CG3704 | 1 | 1.49e6 | 1.47e6 | 1.07e6 | 1.11e6 | inactive |
| CG3704 | 2 | 1.50e6 | 1.50e6 | 1.02e6 | 1.11e6 | inactive |
| CG17230 | 1 | 1.55e6 | 1.61e6 | 1.32e6 | 1.33e6 | inactive |
| pros (prospero) | 1 | 1.52e6 | 1.67e6 | 1.01e6 | 1.28e6 | inactive |
| pros (prospero) | 2 | 1.57e6 | 1.47e6 | 1.22e6 | 1.29e6 | inactive |
| tn (thin) | 1 | 5.88e5 | – | 8.10e5 | – | inactive |
| tn (thin) | 2 | 1.13e6 | 1.19e6 | 1.12e6 | 1.03e6 | inactive |
| Fs (Follistatin) | 1 | 1.35e6 | 1.41e6 | 1.02e6 | 1.01e6 | inactive |
| Fs (Follistatin) | 2 | 1.56e6 | 1.62e6 | 1.17e6 | 1.36e6 | inactive |
